# Assay results published in the supplement of paper PMC8728848.
# The list shows a part of the results.
# Key:
# Assay in all cases: glycan array binding signal (z-score within array); higher = stronger binding
# Details in all cases: glycan notation: IUPAC condensed, linker removed
# GalNAc(b1-4)GlcNAc = target: GalNAc(b1-4)GlcNAc
# Procedure, shortened: (§1)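 Glycan array data were curated from 3228 arrays in the Consortium for Functional Glycomics database and kept only where the protein sequence was available. Glycan names were converted to IUPAC-condensed notation, and columns mapping to the same glycan were averaged. The binding signal is a within-array Z-score, averaged across arrays of the same protein sequence at different concentrations or buffers and across linkers. Negative Z-scores can be read as non-binding.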
# [1] = target: GalNAc(b1-4)GlcNAc(b1-2)Man
# Procedure, shortened: as §1
# [2] = target: GalNAc(b1-4)GlcNAc(b1-2)Man(a1-3)[GalNAc(b1-4)GlcNAc(b1-2)Man(a1-6)]Man(b1-4)GlcNAc(b1-4)GlcNAc
# Procedure, shortened: as §1
# [3] = target: GalNAc(b1-4)GlcNAc(b1-3)GalNAc(b1-4)GlcNAc
# Procedure, shortened: as §1
# GalNAc(b1-4)GlcNAc6S = target: GalNAc(b1-4)GlcNAc6S
# Procedure, shortened: as §1
# GalNAc(b1-6)GalNAc = target: GalNAc(b1-6)GalNAc
# Procedure, shortened: as §1
# GalNAc3S(b1-4)GlcNAc = target: GalNAc3S(b1-4)GlcNAc
# Procedure, shortened: as §1
# GalNAc3S(b1-4)GlcNAc3S = target: GalNAc3S(b1-4)GlcNAc3S
# Procedure, shortened: as §1
# [4] = target: GalNAc3S(b1-4)[Fuc(a1-3)]GlcNAc
# Procedure, shortened: as §1
# GalNAc4S6S(b1-4)GlcNAc = target: GalNAc4S6S(b1-4)GlcNAc
# Procedure, shortened: as §1
# GalNAc6S(b1-4)GlcNAc = target: GalNAc6S(b1-4)GlcNAc
# Procedure, shortened: as §1
# Glc(a1-4)Glc = target: Glc(a1-4)Glc
# Procedure, shortened: as §1
# [5] = target: Glc(a1-4)Glc(a1-4)Glc(a1-4)Glc
# Procedure, shortened: as §1
# Glc(a1-6)Glc(a1-6)Glc = target: Glc(a1-6)Glc(a1-6)Glc
# Procedure, shortened: as §1
# [6] = target: Glc(a1-6)Glc(a1-6)Glc(a1-6)Glc
# Procedure, shortened: as §1
# Glc(b1-4)Glc = target: Glc(b1-4)Glc
# Procedure, shortened: as §1
# Glc(b1-6)Glc = target: Glc(b1-6)Glc
# Procedure, shortened: as §1
# GlcA(b1-3)Gal = target: GlcA(b1-3)Gal
# Procedure, shortened: as §1
# GlcA(b1-3)GlcNAc = target: GlcA(b1-3)GlcNAc
# Procedure, shortened: as §1
# GlcA(b1-6)Gal = target: GlcA(b1-6)Gal
# Procedure, shortened: as §1
# [7] = target: GlcA3S(b1-3)Gal(b1-4)GlcNAc(b1-2)Man
# Procedure, shortened: as §1
# [8] = target: GlcA3S(b1-3)Gal(b1-4)GlcNAc(b1-3)Gal(b1-4)Glc
# Procedure, shortened: as §1
# [9] = target: GlcNAc(a1-3)Gal(b1-4)GlcNAc
# Procedure, shortened: as §1
# [10] = target: GlcNAc(a1-4)Gal(b1-3)GlcNAc
# Procedure, shortened: as §1
# [11] = target: GlcNAc(a1-4)Gal(b1-4)GalNAc
# Procedure, shortened: as §1
# [12] = target: GlcNAc(a1-4)Gal(b1-4)GlcNAc
# Procedure, shortened: as §1
# [13] = target: GlcNAc(a1-4)Gal(b1-4)GlcNAc(b1-3)Gal(b1-4)Glc
# Procedure, shortened: as §1
# [14] = target: GlcNAc(a1-4)Gal(b1-4)GlcNAc(b1-3)Gal(b1-4)GlcNAc
# Procedure, shortened: as §1
# [15] = target: GlcNAc(a1-4)Gal(b1-4)GlcNAc(b1-3)Gal(b1-4)GlcNAc(b1-3)Gal(b1-4)GlcNAc
# Procedure, shortened: as §1
# [16] = target: GlcNAc(a1-4)Gal(b1-4)GlcNAc(b1-3)Gal(b1-4)[Fuc(a1-3)]GlcNAc(b1-3)Gal(b1-4)[Fuc(a1-3)]GlcNAc
# Procedure, shortened: as §1
# [17] = target: GlcNAc(a1-6)Gal(b1-4)GlcNAc
# Procedure, shortened: as §1
# [18] = target: GlcNAc(b1-2)Gal(b1-3)GalNAc
# Procedure, shortened: as §1
# [19] = target: GlcNAc(b1-2)Man(a1-3)[GlcNAc(b1-2)Man(a1-6)]Man(b1-4)GlcNAc(b1-4)GlcNAc
# Procedure, shortened: as §1
# [20] = target: GlcNAc(b1-2)Man(a1-3)[GlcNAc(b1-2)Man(a1-6)]Man(b1-4)GlcNAc(b1-4)[Fuc(a1-6)]GlcNAc
# Procedure, shortened: as §1
# [21] = target: GlcNAc(b1-2)Man(a1-3)[GlcNAc(b1-4)][GlcNAc(b1-2)Man(a1-6)]Man(b1-4)GlcNAc(b1-4)GlcNAc
# Procedure, shortened: as §1
# [22] = target: GlcNAc(b1-2)Man(a1-3)[GlcNAc(b1-4)][GlcNAc(b1-2)Man(a1-6)]Man(b1-4)GlcNAc(b1-4)[Fuc(a1-6)]GlcNAc
# Procedure, shortened: as §1
# [23] = target: GlcNAc(b1-2)[GlcNAc(b1-4)]Man(a1-3)[GlcNAc(b1-2)Man(a1-6)]Man(b1-4)GlcNAc(b1-4)GlcNAc
# Procedure, shortened: as §1
binder,measurement,setting,value
Epa2 (Candida glabrata) (protein) MGSSHHHHHHSSGLVPRGSHMASSKDPTSFPMGCSPQVLKTQPGLAVKLYSYGHPVPGCAYNTYQYPDFPRSGYKKERKLADITGVNGRIDIDLKPNDPCRVLSGNLPSNYNYQNTLTYTNFTMILYGYFQPKVTGYHTFNLEADDLLFMNLGAGNAFDCCRAESTLDNFGNYQSYSIWGTDKATADLTVFLVSGIYYPIRLFYVNRDNNAVLDFSFSTEFNKEIIHDFTSYFFSASDEEQCPGNI,glycan array binding signal (z-score),GalNAc(b1-4)GlcNAc,0.685
same,glycan array binding signal (z-score),[1],-0.305
same,glycan array binding signal (z-score),[2],0.305
same,glycan array binding signal (z-score),[3],0.622
same,glycan array binding signal (z-score),GalNAc(b1-4)GlcNAc6S,1.21
same,glycan array binding signal (z-score),GalNAc(b1-6)GalNAc,-0.851
same,glycan array binding signal (z-score),GalNAc3S(b1-4)GlcNAc,0.304
same,glycan array binding signal (z-score),GalNAc3S(b1-4)GlcNAc3S,0.541
same,glycan array binding signal (z-score),[4],0.25
same,glycan array binding signal (z-score),GalNAc4S6S(b1-4)GlcNAc,0.176
same,glycan array binding signal (z-score),GalNAc6S(b1-4)GlcNAc,0.17
same,glycan array binding signal (z-score),Glc(a1-4)Glc,-0.167
same,glycan array binding signal (z-score),[5],0.96
same,glycan array binding signal (z-score),Glc(a1-6)Glc(a1-6)Glc,-0.714
same,glycan array binding signal (z-score),[6],-0.332
same,glycan array binding signal (z-score),Glc(b1-4)Glc,0.058
same,glycan array binding signal (z-score),Glc(b1-6)Glc,-0.244
same,glycan array binding signal (z-score),GlcA(b1-3)Gal,-0.102
same,glycan array binding signal (z-score),GlcA(b1-3)GlcNAc,0.115
same,glycan array binding signal (z-score),GlcA(b1-6)Gal,0.586
same,glycan array binding signal (z-score),[7],-0.547
same,glycan array binding signal (z-score),[8],-0.733
same,glycan array binding signal (z-score),[9],-0.681
same,glycan array binding signal (z-score),[10],-0.432
same,glycan array binding signal (z-score),[11],-0.65
same,glycan array binding signal (z-score),[12],-0.615
same,glycan array binding signal (z-score),[13],-0.784
same,glycan array binding signal (z-score),[14],-0.429
same,glycan array binding signal (z-score),[15],-0.057
same,glycan array binding signal (z-score),[16],0.216
same,glycan array binding signal (z-score),[17],-1
same,glycan array binding signal (z-score),[18],-0.485
same,glycan array binding signal (z-score),[19],-0.259
same,glycan array binding signal (z-score),[20],0.098
same,glycan array binding signal (z-score),[21],-0.495
same,glycan array binding signal (z-score),[22],-0.368
same,glycan array binding signal (z-score),[23],-0.62

# Not a retest: entries from further up.
binder,measurement,setting,value
Epa2 (Candida glabrata) (protein) MGSSHHHHHHSSGLVPRGSHMASSKDPTSFPMGCSPQVLKTQPGLAVKLYSYGHPVPGCAYNTYQYPDFPRSGYKKERKLADITGVNGRIDIDLKPNDPCRVLSGNLPSNYNYQNTLTYTNFTMILYGYFQPKVTGYHTFNLEADDLLFMNLGAGNAFDCCRAESTLDNFGNYQSYSIWGTDKATADLTVFLVSGIYYPIRLFYVNRDNNAVLDFSFSTEFNKEIIHDFTSYFFSASDEEQCPGNI,glycan array binding signal (z-score),[13],-0.784
same,glycan array binding signal (z-score),[14],-0.429
same,glycan array binding signal (z-score),[15],-0.057
